Measured values: patent US7419954B2, “Staphylococcus peptides for bacterial interference” (priority 1998, dated 2008)
Where two headings read alike, the source gives them in different places. Not every detail of the peptide structures is certain; ends, links or a residue may be inferred. For at least one compound, name, drawing or mass did not settle the structure. Where a SMILES comes first, the peptide text is derived from it. Bridges are numbered along the chain shown (N, C = ends).

Assays:
[1] = system: agr-I bacteria carrying blaZp-lux or agrp3-lux; format: cell-based, S. aureus; settings: solid media in vitro, 24 h
[2] = molecular target: agr response in group III (RN8463) S. aureus; test: agr P3-blaZ β-lactamase reporter assay, activation of the agr response; format: cell-based; settings: early exponential phase, 55 minutes
Description: (§1) The synthetic AgrD peptides shown in Table 1 include the following: Agr D1 Thiolactone. […] (SEQ ID NO: 9): Agr D2 Thiolactone, […] (SEQ lID NO: 1): Agr D2 Linear Thioester, […] (SEQ ID NO: 1): Agr D2 Linear Free Acid […] (SEQ ID NO: 1); Agr D2 Lactone, […] (SEQ ID NO: 1); and Agr D2 Lactam, GVNAXSSLF (SEQ ID NO: 1).
(§2) Biological activity of synthetic AgrD peptides. Biological assays were performed using groups I (RN6390B), II (SA502A) and III (RN8463) S. aureus strains (Ji et al. (1997) supra), each containing an agr P3-blaZ fusion plasmid (Novick et al. (1995) supra). Cells were grown in CYGP medium at 37° C. to either early exponential phase for agr activation studies, or midexponential phase for agr inhibition studies. To the cultured cells were then added one of the following: buffer solution (negative control), the appropriate cell supernatant containing the natural AgrD peptide as prepared as in (Ji, G., et al., 1995) (positive control) or the synthetic peptide solution in 20 mM tris.HCl buffer at pH 6.0.

[3] = molecular target: agr response in group I (RN6390B) S. aureus; test: as above; format: cell-based; settings: early exponential phase, 55 minutes
Description: as §1, §2

[4] = molecular target: agr response in group II (SA502A) S. aureus; test: as above; format: cell-based; settings: early exponential phase, 55 minutes, read-out: ED50 Activation, S. aureus Group II
Description: as §1, §2

[5] = molecular target: agr response in group III (RN8463) S. aureus; test: agr P3-blaZ β-lactamase reporter assay, inhibition of the agr response; format: cell-based; settings: midexponential phase, 80 minutes
Description: as §1, §2

[6] = molecular target: agr response in group I (RN6390B) S. aureus; test: as above; format: cell-based; settings: midexponential phase, 80 minutes
Description: as §1, §2

[7] = molecular target: agr response in group II (SA502A) S. aureus; test: as above; format: cell-based; settings: midexponential phase, 80 minutes
Description: as §1, §2

[8] = system: agr-I bacteria (RN6734) carrying agrp3-lux or blaZp-lux; test: Murine subcutaneous abscess model with in vivo bioluminescence imaging; design: species or system SKH-1 mice; settings: single dose co-injected with agr-I bacteria, mice
Description: Murine subcutaneous abscess model. Groups (n=3 per variable examined) of hairless, euthymic SKH-1 (ISL) mice (Charles River) were used in the murine subcutaneous abscess model (Bunce et al. (1992) Infect. Immun. 60, 2636-40). In this model, staphylococci are injected subcutaneously with cytodex beads, and an abscess develops at the site of injection 2-3 days later, then sloughs and drains. The organisms grow rapidly initially, after which the population levels out and remains constant thereafter. Polymorphonuclear leuykocytes (PMNs) are attracted to the developing lesion by bacterial products and by pro-inflammatory cytokines, reaching maximum numbers by about 6 hours.
Bacteria were thawed, diluted to appropriate cell density, mixed with sterile cytodex beads (Sigma) and injected subcutaneously in a volume of 0.1 ml in the flank region. […] Mice were fed a standard diet ad libitum and monitored daily for signs of distress. Colony forming units (CFU) per abscess were determined by plating serial dilutions of excised lesions homogenized in PBS plus 0.5% Triton X-100.
Measurement of bioluminescence in vivo. […] For the graphs, the signal collected on a portion of the CCD array corresponding to the area of injected bacteria was determined in photons/sec/cm^2/sr, referred to as relative light units (RLU), and plotted vs. time after initiation of infection.

[9] = molecular target: strain RN7206 carrying the agrCA-II agrp3-blaZ reporter fusion; test: Determination of AIP-II half-life: incubation in PBS or rabbit serum, then dose-response activation of β-lactamase induction; format: cell-based, S. aureus; settings: 37° C., 4 hours
Description: Determination of AIP-II half-life. To approximate the active lifetime of AIP, a synthetic version of AIP-IL (Lyon et al. (2002) Biochemistry 41, 10095-104) was incubated in PBS or rabbit serum at 37° C. for 4 hours. The sample was diluted and a dose-response assay for activation of β-lactamase induction of strain RN7206 carrying the agrCA-II agrp3-blaZ reporter fusion was performed as previously described (Lyon et al. (2002) supra; Wright III et al. (2004) Proc. Natl. Acad. Sci., USA).

## CC(C)C[C@@H]1NC(=O)[C@H](CO)NC(=O)[C@H](CO)NC(=O)[C@@H](NC(=O)[C@H](C)NC(=O)[C@H](CC(N)=O)NC(=O)[C@@H](NC(=O)CN)C(C)C)CSC(=O)[C@H](Cc2ccccc2)NC1=O [Agr D2 Thiololactone, GVNACSSLF (SEQ lID NO: 1)] (H-GVNACSSLF; thioester 5-C)
[1]
  blaZp-lux expression: without affecting
  luciferase activity of the agrp3-lux construct: blocking
[2]
  ED50 Activation, S. aureus Group III: No Activation
[3]
  ED50 Activation, S. aureus Group I: No Activation
[4]
  EC50: 3.6 nM
[5]
  IC50: 3.1 nM
[6]
  IC50: 3.4 nM
[7]
  IC50 Inhibition, S. aureus Group II: No Inhibition
[8]
  duration of inhibition of agr activation in vivo (agrp3-lux): about 3 hours
[9]; PBS, read-out: EC50, activation of agrp3-blaZ, after incubation in PBS
  EC50: 56.1 nM
[9]; rabbit serum, read-out: EC50, activation of agrp3-blaZ, after incubation in serum
  EC50: 134 nM
